Reference: the supplement of paper PMC3334620
The full ranking holds about 33,000 sequences; the median of “E-score (-0.5 to 0.5)” is about -0.0014, and the highest 2% start at about 0.25. Some of the results follow.

Target: T1, Cad1 (UniProt P24813)
T1 sequence: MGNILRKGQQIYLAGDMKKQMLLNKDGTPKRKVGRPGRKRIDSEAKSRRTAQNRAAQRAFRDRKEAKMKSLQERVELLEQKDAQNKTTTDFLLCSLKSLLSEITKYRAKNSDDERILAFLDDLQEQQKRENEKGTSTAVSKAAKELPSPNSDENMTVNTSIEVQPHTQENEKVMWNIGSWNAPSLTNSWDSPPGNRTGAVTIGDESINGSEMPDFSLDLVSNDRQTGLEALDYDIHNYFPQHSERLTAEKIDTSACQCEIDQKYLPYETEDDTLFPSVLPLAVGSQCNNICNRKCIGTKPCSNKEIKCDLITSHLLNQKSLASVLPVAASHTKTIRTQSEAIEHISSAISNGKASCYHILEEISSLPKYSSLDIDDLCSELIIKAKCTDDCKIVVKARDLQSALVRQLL
Assay: PBM E-score (8-mer binding enrichment) (E-score (-0.5 to 0.5)); higher = stronger / more preferred TF binding
Conditions: protein concentration: 100 nM; construct: GST-full length
Experimental: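 Universal 'all 10-mer' protein binding microarrays (Agilent AMADID 015681) probed with GST-tagged S. cerevisiae TFs (full-length or DBD) made by in vitro transcription/translation (PURExpress), about 100-200 nM. Bound TF was detected with fluorescent anti-GST. Each ungapped 8-mer (which stands for itself and its reverse complement) is scored by the PBM enrichment score (E-score), a modified Wilcoxon-Mann-Whitney statistic from -0.5 to +0.5, computed with the Universal PBM Analysis Suite. Scale: above 0.35 generally sequence-specific binding.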

Sequence | PBM E-score
ATTTTGTA | 0.155
CACACGAG | -0.0571
TCAGCGAA | 0.021
CAGCTTCA | 0.0676
ACTCGAAT | -0.0317
CGTAGCGA | -0.0894
CTAACGCA | 0.138
GAGTCCAC | -0.183
ATTGCGGA | 0.186
CCGCAAGG | -0.0627
ACGCAACG | 0.0718
CCCCAGAC | -0.245
CACCGTAA | 0.0876
ATATAGAC | 0.154
CCCAGGTC | -0.3
ATTCTTAC | 0.0732
CCTGCGCC | -0.179
ATTAGAGG | -0.0968
AGATGGAT | -0.141
AGTCGTTC | -0.0386
ACTCAAAA | 0.0472
CACCTCGA | 0.112
CATCTCTC | -0.131
AAAACTCG | 0.185
TCACTGAA | -0.00153

Sequence | PBM E-score
CTACAGTA | 0.0624
CCTCGACA | -0.0568
CTGTCAGA | 0.0425
GACAATAC | 0.184
CTGCAATC | 0.11
TAAGATGA | 0.0316
ATCCGTAG | -0.234
ATGGAGAA | 0.0427
AGTCCGAC | -0.108
AGAACGGA | 0.0388
AGCGTTAC | -0.13
GGAAATAC | 0.161
AGTTTGAT | 0.0851
CAGACACC | 0.00559
CAACCCCA | 0.0314
CAAAGTGA | 0.108
GGCAACGA | 0.212
ACGATACG | -0.0352
CGGTCTCC | -0.167
CGAAGGGA | -0.139
CCCGACCG | -0.328
CTAGTCCA | -0.0675
GAATCGGA | 0.132
AGGCGGGC | -0.204
ACATGTCA | 0.024

Sequence | PBM E-score
AATTAGAA | 0.063
AGTAGTGG | 0.0582
CGGGTCTA | 0.0381
ACTGACCC | -0.232
AGAACTCA | 0.00835
ATAAAGGC | -0.093
ACCCGTAC | -0.152
GTTATTAA | 0.291
AACTGCAG | -0.0613
GGCGCACC | -0.0951
CCAAACCA | -0.071
AGACGTAT | -0.0747
AGTGATCA | 0.0352
GCCCCGGA | -0.23
GCAACCCA | 0.0297
ACACGCAA | 0.198
TAGGATCA | 0.0309
AACGCGAG | 0.115
GCTGCAGA | 0.147
GACACTTA | 0.00183
AAACACTT | 0.124
ATGTCAAA | 0.165
AGTCTTCC | 0.0794
CGGATGCA | -0.136
GGTGAGAC | -0.171

Sequence | PBM E-score
GAATTTGC | 0.0976
CCCCGTCA | -0.195
ACGTATAA | 0.148
ACCCCTAG | -0.192
ATTCCAGC | 0.0244
CGACAATC | -0.0628
ACTAAAGT | 0.0907
AGGAAAGC | -0.143
ATAGGCGC | 0.0733
GAACTCAC | -0.0254
CTTGAAGC | 0.056
CACCGTGC | 0.161
CCGCGGAA | 0.168
CCCGGACC | -0.234
GCCGTGCC | -0.0494
TCAGTACA | 0.0479
CTCTGACA | 0.0983
AATACCGT | 0.0489
CTACGAAA | 0.0242
CATAAAGA | 0.0856
AGCACCAC | -0.0896
ATGTTCCC | -0.131
AACTGCAA | 0.00596
CGCGCAAC | 0.2
AATCTAAT | -0.0351

Sequence | PBM E-score
CGGCGGAA | 0.0485
ATCCGTGC | 0.15
GTGTGTTA | 0.207
ATGGACCA | 0.135
ATCAATAG | 0.0176
AACCCTTC | -0.0614
CTCCCTCA | -0.112
AATTCGTC | 0.274
CTAGAGTA | -0.0808
ACTATCCA | 0.0296
AAATGGGG | -0.267
ATAGGACA | -0.248
CCACGTTA | 0.0705
ACACAAAC | 0.0811
GCCCTGGA | -0.11
CCCGATGC | -0.0619
AGAACCCA | -0.0477
ACACCAGT | -0.122
CCCAGACA | -0.108
AGTCCTCC | -0.244
CCACGAGA | -0.127
GAGGACCA | -0.071
GGCTATGA | -0.0928
TATTTGGA | -0.0472
CATAGGAA | -0.0271

Sequence | PBM E-score
GCACTGAC | 0.00743
GAGGGACA | -0.165
ATGTTAAT | 0.0743
TCCGTTCA | 0.0746
AGAGTACG | -0.162
ATTCTAAA | 0.181
CCAGCCGC | -0.012
AGATTAAA | 0.233
CCATTGAC | -0.114
CGAAGGAA | 0.115
AACGTAAT | 0.261
AGGCTCGC | -0.00907
ATCGGAGC | -0.0863
ATAAGGGA | -0.0969
AAGGCCGT | 0.043
ATTACCTG | 0.0602
CCGCAGCA | 0.115
CTTTTAAA | -0.0671
ACGCTTGA | -0.0208
AGTGTTAC | 0.134
AGGCGCCG | 0.216
ACCGCATG | 0.00313
AAGGCTTA | 0.0239
AAATGGCA | -0.0715
GTAGTATA | 0.17

Part of the list above, as a markdown table:

| Sequence | PBM E-score |
| --- | --- |
| CCGCAGCA | 0.115 |
| CTTTTAAA | -0.0671 |
| ACGCTTGA | -0.0208 |
| AGTGTTAC | 0.134 |
| AGGCGCCG | 0.216 |
| ACCGCATG | 0.00313 |

Additional results:

Sequence | PBM E-score
CAAAGGGC | -0.061
ATGGGACG | -0.152
CATGCTCG | -0.179
CGTCGGGA | -0.0539
CTGGTCGC | -0.0586
ATTGGCAA | 0.121
GTAGCGGA | 0.0465
TAGAGGAA | -0.127
ATCACGCA | 0.0574
AAAGCGCT | 0.208
ACGCGGAT | 0.0938
ATTTCCCG | 0.209
CCTGTTAA | -0.0931
ATAGAACA | 0.029
AAAGGTCT | -0.212
AGAGTGTA | -0.193
CCGTGTTA | 0.0186
ACCTTTAG | -0.142
ACTAAGGC | 0.0629
ATGTACTA | 0.11
CGTCACTA | 0.0921
CCAATCAG | -0.134
AGCGGCAG | -0.0167
CGGCCAAA | 0.0395
TCACGTAA | 0.0889

Sequence | PBM E-score
GTCGATTA | 0.115
CTGTTAAG | -0.0803
ATTGTTAA | 0.0122
CACCGCTA | -0.00231
AGCAAGCA | -0.152
GCTTGACA | -0.041
AACTGTGT | -0.0147
TCCATGAA | 0.0281
CGAGCAAC | 0.051
GGTTACCA | 0.0282
GCCCCCGC | -0.376
ACGGCCAT | -0.207
GACGCTGA | 0.0912
TAGTTTGA | 0.167
CTCGTACA | -0.0337
CACTCGCG | 0.122
GCTGGGCC | -0.297
CGGGAATC | -0.0186
TATTCACA | 0.241
AGACGAGG | -0.199
CCTCCTTA | -0.237
AGTAATTA | 0.283
ACCTATGG | 0.041
CTATCCCA | -0.137
GAGAAACC | -0.0404

Sequence | PBM E-score
AACCGGTG | -0.0493
ACGTGTGA | -0.0977
ACTGTTCG | 0.0815
ATAACGCC | -0.0129
ATCGCGTA | 0.0548
AACTCTTC | -0.0474
TAAACGTA | 0.172
AGACGCCG | 0.105
TAGGGATA | -0.0305
GAAGCCGA | -0.0276
TAGCGCCA | 0.0297
ACTTCAGA | 0.0469
CAACTGAG | 0.0347
GACAACCA | 0.218
CGGTCAAC | 0.114
CCCTCCGC | -0.168
AATACACA | 0.144
CGGCCCAC | -0.223
GGCATCGA | -0.176
